From patent US20200392228A1
Substitutions are numbered along the chain they refer to. These are yes or no findings as the source states them, for the method shown. Some binding calls cover weakened binding; strength is not graded here.

By UniProt entry, the sequences of proteins in these tests, tags left out. Where a name states a change or a piece, a line headed by the entry shows the natural chain unless it says otherwise. Residues count along the entry.
UniProt Q61826: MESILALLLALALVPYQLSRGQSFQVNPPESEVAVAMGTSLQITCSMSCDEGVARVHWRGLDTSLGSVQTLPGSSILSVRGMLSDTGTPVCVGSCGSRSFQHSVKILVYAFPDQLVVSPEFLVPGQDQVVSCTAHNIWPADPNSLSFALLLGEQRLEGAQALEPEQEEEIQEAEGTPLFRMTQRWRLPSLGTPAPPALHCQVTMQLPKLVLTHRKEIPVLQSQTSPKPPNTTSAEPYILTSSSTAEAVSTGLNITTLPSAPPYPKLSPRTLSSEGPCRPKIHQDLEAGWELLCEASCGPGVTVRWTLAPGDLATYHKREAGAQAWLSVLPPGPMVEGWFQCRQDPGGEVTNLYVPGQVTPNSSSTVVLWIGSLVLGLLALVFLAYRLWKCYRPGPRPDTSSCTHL
mouse MAdCAM expressed on cells: residues 22-405 of Q61826
mouse MAdCAM protein: residues 22-365 of Q61826
UniProt Q13477: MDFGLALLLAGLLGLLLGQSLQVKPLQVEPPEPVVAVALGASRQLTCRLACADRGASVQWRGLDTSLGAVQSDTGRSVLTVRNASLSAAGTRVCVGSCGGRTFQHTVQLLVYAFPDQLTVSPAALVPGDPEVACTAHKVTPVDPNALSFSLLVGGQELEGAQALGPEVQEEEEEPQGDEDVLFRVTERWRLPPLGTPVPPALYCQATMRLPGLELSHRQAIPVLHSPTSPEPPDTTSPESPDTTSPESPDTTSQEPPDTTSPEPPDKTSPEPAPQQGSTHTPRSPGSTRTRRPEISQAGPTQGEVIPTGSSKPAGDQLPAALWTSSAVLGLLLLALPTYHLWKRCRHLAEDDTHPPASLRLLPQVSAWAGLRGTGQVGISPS
human MAdCAM expressed on cells: residues 19-382 of Q13477
human MAdCAM protein: residues 19-317 of Q13477

B1: MAdCAM antibody Clone ID 7 of Table 7 (IgG) (antibody, V domains shown)
VH: EVQLLESGGGLVQPGGSLRLSCAASGFTFSDYQMSWVRQAPGKGLEWVAIISHADGGFKDYADSVKGRFTISRDNSKNTLYLQMNSLRAEDTAVYYCAKPYSSGWSAVYYFDYWGQGTLVTVSS
VL: DIQMTQSPSSLSASVGDRVTITCRASRGITNDLGWYQQKPGKAPKLLIYAASTLQSGVPSRFSGSGSGTDFTLTISSLQPEDFATYYCQQAYSFPWTFGQGTKVEIK
B2: MAdCAM antibody Clone ID 4 of Table 7 (IgG) (antibody, V domains shown)
VH: QVQLVQSGAEVKKPGASVKVSCKASGGTFSSYAISWVRQAPGQGLEWMGSINPSGDTTSYAQKFQGRVTMTRDTSTSTVYMELSSLRSEDTAVYYCAKDKAQWLVGYFDYWGQGTLVTVSS
VL: DIQMTQSPSSLSASVGDRVTITCQASQDISNSLNWYQQKPGKAPKLLIYAASSLQSGVPSRFSGSGSGTDFTLTISSLQPEDFATYYCQQSYSSVITFGQGTKVEIK
B3: MAdCAM antibody Clone ID 11 of Table 7 (IgG) (antibody, V domains shown)
VH: EVQLLESGGGLVQPGGSLRLSCAASGFTFSDYYMNWVRQAPGKGLEWVSVIGESGGSTYYADSVKGRFTISRDNSKNTLYLQMNSLRAEDTAVYYCAADPVSRWPKHGGGDYWGQGTLVTVSS
VL: B1 VL with R27Q, T30S, N31S, D32S, G34A, A91S, F94T
B4: MAdCAM antibody Clone ID 8 of Table 7 (IgG) (antibody, V domains shown)
VH: QVQLVQSGAEVKKPGASVKVSCKASGYTFTGYHIHWVRQAPGQGLEWMGIINPSGGSTIYAQKFQGRVTMTRDTSTSTVYMELSSLRSEDTAVYYCAKDWSSWYLGPFDYWGQGTLVTVSS
VL: B2 VL with Q24R, D28N, N31S, S93T, S94T, V95P, I96Y
B5: MAdCAM antibody Clone ID 5 of Table 7 (IgG) (antibody, V domains shown)
VH: EVQLLESGGGLVQPGGSLRLSCAASGFTFSSYWMHWVRQAPGKGLEWVSSISPGGSNIDYADSVKGRFTISRDNSKNTLYLQMNSLRAEDTAVYYCAREVQLSHYDYWGQGTLVTVSS
VL: B1 VL with R27Q, T30S, D32S, G34A, A50G, T53S, Y92N, W96F
B6: MAdCAM antibody Clone ID 84 of Table 7 (IgG) (antibody, V domains shown)
VH: QVQLVQSGAEVKKPGASVKVSCKASGGTFSSSAISWVRQAPGQGLEWMGWISAYNGYTNYAQKFQGRVTMTRDTSTSTVYMELSSLRSEDTAVYYCASRVHSGGSYPDDYWGQGTLVTVSS
VL: B2 VL with Q27E, D28H, S30Y, S32Y, S91T, Y92D, S94I, V95P

molecular target: mouse MAdCAM protein (mouse) (UniProt Q61826); assay: Octet

binding | Binder
binds | B1
binds | B2
binds | B3
binds | B4
binds | B5

molecular target: human MAdCAM protein (human) (UniProt Q13477); assay: Octet

binding | Binder
binds | B2
binds | B3
binds | B6
binds | B5

molecular target: human MAdCAM expressed on cells (human) (UniProt Q13477); assay: cell binding

binding | Binder
binds | B1
binds | B2
binds | B3
binds | B4
binds | B6
binds | B5

molecular target: mouse MAdCAM expressed on cells (mouse) (UniProt Q61826); assay: cell binding

binding | Binder
binds | B1
binds | B2
binds | B3
binds | B4
binds | B6
binds | B5
